# Screening data, single-dose tests

Measurements from “University of Dundee, Small-Polar-MMV Screening Library” (2021), ChEMBL document CHEMBL3988442.

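Assay of Toxoplasma gondii numbers, read through their beta-galactosidase reporter with a colour substrate. Tested at 50 µM. The record gives no direction; the compounds picked for IC50 retests had high values, so higher reads as fewer parasites. Size under these conditions: about 18,000 compounds, about 170 of them at 50% or above in at least one test.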

The filed quantity is “Percent Effect” (%). How 0% and 100% were set is not recorded. Most values in the screen are low, and negative values occur. Compounds were drawn at random from those tested, without regard to their results.

With CSCCN(C)c1cc([C@H]2C[C@@H](N)C2)nc(N)n1 the screen gave 18.9%.
With CC(C)Nc1ccc(F)cc1OCCO the screen gave -3.368%.
With CC(NC(=O)c1ccc(Br)cc1)C(=O)N1CCOCC1 (centres unmarked) the screen gave -8.67%.
With Cc1nc(C)c(C[S+]([O-])CC(=O)N2CCC(C)CC2)s1 (centres unmarked) the screen gave -6.945%.
With CCC(=O)NCc1ccncc1OCC(F)(F)F the screen gave 5.447%.
With CC(Cn1cccn1)NC(=O)Cn1cc(Br)ccc1=O (centres unmarked) the screen gave -3.492%.
With CC(O)CN1CCN(C)CC1 (centres unmarked) the screen gave 17.67%.
With CN(C)C(=O)CCCn1ccc(N)n1 the screen gave -1.155%.
With COC1CC(CCN)C1 (centres unmarked) the screen gave -8.201%.
With COCCNCc1cc(Cl)ccc1OCC(N)=O the screen gave 0.8054%.
With CCNc1nc(C(=O)N(C)Cc2cnccn2)cs1 the screen gave -5.779%.
With CN(C)Cc1ccccc1C(=O)N[C@@H]1CCOC[C@H]1O the screen gave -1.464%.
With COCCN1CCN(Cc2cccn2C)CC1=O the screen gave 19.58%.
With CCOCCN1CCN(CC(=O)N2CCCC2)CC1 the screen gave 5.096%.
With CN(C)C(=O)C1CCN(C(=O)Nc2ccccc2)CC1 the screen gave -4.211%.
With CN1CCC2(CCNCC2)C1=O the screen gave -5.213%.
With CSCC(=O)N1CCC(C2CCN(S(C)(=O)=O)CC2)C1 (centres unmarked) the screen gave 15.04%.
With COc1ccccc1C(C)(C)N the screen gave -12.53%.
With CN(C)CCC(=O)c1ccc(F)cc1 the screen gave 13.07%.
With CNC(=O)c1ccc(-n2cccc2)nc1 the screen gave -10.54%.
With COC(=O)CSc1nc2cc(F)c(F)cc2[nH]1 the screen gave -2.492%.
With CCN1CC2(CCN(CCC(C)SC)CC2)OC1=O (centres unmarked) the screen gave 12.31%.
With CC(CC(=O)N1CCOCC1)c1ccccc1 (centres unmarked) the screen gave 0.08099%.
With CC1CN(CCC(=O)NCc2cccs2)CCCO1 (centres unmarked) the screen gave 2.553%.
With CC(O)CN1CCC(CN(C)Cc2nccn2C)CC1 (centres unmarked) the screen gave 0.1283%.
With O=C(CN1CCCC1c1ccsc1)N1CCOCC1 (centres unmarked) the screen gave -1.755%.
With NC(=O)C1(N)CCOCC1 the screen gave -2.027%.
With CC(Nc1ccc(F)cc1)C(=O)N1CCCC1 (centres unmarked) the screen gave 1.267%.
With Nc1nc(CCNC(=O)CN2CCOC2=O)cs1 the screen gave 1.851%.
With CC(C)CN1CC(CN)OC1=O (centres unmarked) the screen gave 11.47%.
With COc1cc2c(cc1OC)CN(C(=O)C(C)C)CC2 the screen gave -24.66%.
With CNCc1n[nH]c2c1CCCCC2 the screen gave 12.42%.
With Cc1noc(CCNC(=O)NCCc2ccccn2)n1 the screen gave -14.41%.

Some entries from above, unchanged:

{"compound": "NC(=O)C1(N)CCOCC1", "percent effect": -2.027}
{"compound": "Nc1nc(CCNC(=O)CN2CCOC2=O)cs1", "percent effect": 1.851}